Test results reported in patent US11021686B2, “In vitro production of cholangiocytes” (CAMBRIDGE ENTERPRISE LIMITED, priority 2015, dated 2021).
Like-named read-outs stand apart in the source and are kept apart here. At least one compound was matched to its structure with a doubt left.

Tests used:
CLC organoids = assay: Effect on CLC organoid size (diameter); type: cell-based, human
Method: Images of CLC organoids were taken using 5× magnification before and following the addition of secretin (100 nM, Sigma Aldrich), somatostatin (100 nM, Sigma Aldrich), octreotide (100 nM, Sigma Aldrich) or embryo transfer water serving as a negative control, at 0.5-2 minute intervals until organoid size stabilized. To explore the impact of octreotide on the effect of secretin, cells were pre-incubated for […] with octreotide. 100 nM of secretin (Sigma Aldrich) was subsequently added to the medium and the experiment was carried out as described above. To assess the effect of VX809 on organoid size images were taken before and 6 hours following the addition of VX809 (30 mM, Selleck) or embryo transfer water, serving as a negative control. 3 random diameters were measured for 8 random organoids pre and post treatment. Graph measurements represent percentage differences in mean organoid diameter. Error bars represent SD. Statistical significance was calculated using one-way ANOVA with Dunnett correction for multiple comparisons. The videos available as online supplementary data were made by taking images pre and post treatment at 2 minute intervals, until organoid size stabilized.

hESC-Chol = conditions: Dianat et al (6), cited from earlier work
[1] = tested on: cAMP levels in CLC organoids; assay: cAMP levels (cAMP-Glo) in CLC organoids; type: cell-based, human
Method: cAMP levels were measured in triplicate using the cAMP-Glo assay kit (Promega) based on the manufacturer's instructions and a P450-Glomax 96 microplate luminometer (Promega). Error bars represent SD. Statistical significance was calculated using one-way ANOVA with Dunnett correction for multiple comparisons.

C[C@H](N)C(=O)NCC(=O)N[C@H]1CSSC[C@@H](C(=O)O)NC(=O)[C@H](CO)NC(=O)[C@H]([C@@H](C)O)NC(=O)[C@H](Cc2ccccc2)NC(=O)[C@H]([C@@H](C)O)NC(=O)[C@H](CCCCN)NC(=O)[C@H](Cc2c[nH]c3ccccc23)NC(=O)[C@H](Cc2ccccc2)NC(=O)[C@H](Cc2ccccc2)NC(=O)[C@H](CC(N)=O)NC(=O)[C@H](CCCCN)NC1=O [somatostatin]
percentage of CLC organoids responding (change in diameter) (CLC organoids): 94% | average organoid diameter decrease (CLC organoids; 100 nM, compared to untreated controls): 7.9% | percentage of CLC organoids responding (change in diameter) (CLC organoids; listed as SST): 94% | somatostatin response of hESC-Chol (hESC-Chol; listed as SST): 30% | somatostatin response of hESC-Chol (hESC-Chol): 31% | cAMP levels [1]: decrease
